Results from the supplement of paper PMC7661543.
Differences between knockout arms are mostly noise.

Assays:
Experiment in all cases: relative cell number vs DMSO control (72 h) (% of DMSO); higher = less growth inhibition (more cells)
[1] = system: MDA-MB-231
Description: (§1)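 QMAP-Seq: a pool of 5 breast cancer cell lines (ZR-75-1, SKBR3, HCC-38, MDA-MB-231, BT-20), each carrying 12 doxycycline-inducible Cas9 sgRNA perturbations (11 knockouts plus non-targeting sgNT), was treated with compounds for 72 h at four 10-fold doses (10 nM-10 uM or 1 nM-1 uM range). Barcodes were amplified and sequenced, and cell number was interpolated from 293T spike-in standard curves. The result is expressed as % of the median of DMSO wells. Two biological replicates.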

[2] = system: ZR-75-1
Description: as §1

[3] = system: SKBR3
Description: as §1

Oc1cccc(-c2nc(N3CCOCC3)c3oc4ncccc4c3n2)c1 [PI103]
relative cell number
Details	[1]	[2]	[3]
sgRNA knockout: sgATF3, 10 nM	137	155	134
sgRNA knockout: sgATF3, 100 nM	91.7	106	121
sgRNA knockout: sgATF3, 1000 nM	85.5	75.9	54.8
sgRNA knockout: sgATF3, 10000 nM	58.4	20.2	41.8
sgRNA knockout: sgATF4, 10 nM	121	125	117
sgRNA knockout: sgATF4, 100 nM	173	125.2	132
sgRNA knockout: sgATF4, 1000 nM	114	90.4	61.3
sgRNA knockout: sgATF4, 10000 nM	53.3	17.5	39.8
sgRNA knockout: sgATF6, 10 nM	120	150	106
sgRNA knockout: sgATF6, 100 nM	115	115	111
sgRNA knockout: sgATF6, 1000 nM	80.5	53.8	50.4
sgRNA knockout: sgATF6, 10000 nM	40.4	23	28.8
sgRNA knockout: sgATG7, 10 nM	107	103	107
sgRNA knockout: sgATG7, 100 nM	123	111	160
sgRNA knockout: sgATG7, 1000 nM	110	61.7	61.7
sgRNA knockout: sgATG7, 10000 nM	46.1	28.15	27.4
sgRNA knockout: sgERN1, 10 nM	105	129	97.3
sgRNA knockout: sgERN1, 100 nM	111	120	123
sgRNA knockout: sgERN1, 1000 nM	122	71.7	53.2
sgRNA knockout: sgERN1, 10000 nM	41.6	26.3	34.3
sgRNA knockout: sgHSF1, 10 nM	108	–	133
sgRNA knockout: sgHSF1, 100 nM	112	–	97.7
sgRNA knockout: sgHSF1, 1000 nM	82.3	–	45.7
sgRNA knockout: sgHSF1, 10000 nM	51.2	–	35.4
sgRNA knockout: sgHSF2, 10 nM	119	141	123
sgRNA knockout: sgHSF2, 100 nM	123.6	92.6	125
sgRNA knockout: sgHSF2, 1000 nM	87.5	65.5	64.6
sgRNA knockout: sgHSF2, 10000 nM	40.7	25.4	38.1
sgRNA knockout: sgKEAP1, 10 nM	139.7	–	104
sgRNA knockout: sgKEAP1, 100 nM	106	–	119
sgRNA knockout: sgKEAP1, 1000 nM	74	–	57.1
sgRNA knockout: sgKEAP1, 10000 nM	56	–	28.6
sgRNA knockout: sgNFE2L2, 10 nM	123	125	103
sgRNA knockout: sgNFE2L2, 100 nM	124	104	139
sgRNA knockout: sgNFE2L2, 1000 nM	87.7	87.6	64.2
sgRNA knockout: sgNFE2L2, 10000 nM	48.7	28.3	34.4
sgRNA knockout: sgSLC35F2, 10 nM	108	132	123
sgRNA knockout: sgSLC35F2, 100 nM	129	119	124
sgRNA knockout: sgSLC35F2, 1000 nM	87.1	62.2	49.1
sgRNA knockout: sgSLC35F2, 10000 nM	41.8	25.7	37.1
sgRNA knockout: sgXBP1, 10 nM	103	130	128
sgRNA knockout: sgXBP1, 100 nM	119	94.88	147
sgRNA knockout: sgXBP1, 1000 nM	84.9	63	70.7
sgRNA knockout: sgXBP1, 10000 nM	44.7	20.4	28.4

CCCc1nn(C)c2c(=O)[nH]c(-c3cc(S(=O)(=O)N4CCN(C)CC4)ccc3OCC)nc12 [Sildenafil]
relative cell number
Details	[1]	[2]	[3]
sgRNA knockout: sgATF3, 10 nM	105	83.6	80.8
sgRNA knockout: sgATF3, 100 nM	96.6	116	83.9
sgRNA knockout: sgATF3, 1000 nM	99.1	69.5	93.1
sgRNA knockout: sgATF3, 10000 nM	112	96.4	82.4
sgRNA knockout: sgATF4, 10 nM	84.8	96.6	90.2
sgRNA knockout: sgATF4, 100 nM	99.2	77	84.6
sgRNA knockout: sgATF4, 1000 nM	94.5	97	85.4
sgRNA knockout: sgATF4, 10000 nM	66.1	82.1	97.2
sgRNA knockout: sgATF6, 10 nM	89	97.6	84.2
sgRNA knockout: sgATF6, 100 nM	106	112	102
sgRNA knockout: sgATF6, 1000 nM	84.88	89.6	90.3
sgRNA knockout: sgATF6, 10000 nM	81.3	78.8	84.6
sgRNA knockout: sgATG7, 10 nM	93.9	90.5	107
sgRNA knockout: sgATG7, 100 nM	89.4	119	78.4
sgRNA knockout: sgATG7, 1000 nM	86.3	104	64.4
sgRNA knockout: sgATG7, 10000 nM	94.2	54.7	79.8
sgRNA knockout: sgERN1, 10 nM	91.4	79.4	95.1
sgRNA knockout: sgERN1, 100 nM	85	91.9	90
sgRNA knockout: sgERN1, 1000 nM	81.6	94.8	91.5
sgRNA knockout: sgERN1, 10000 nM	108	95.6	92.2
sgRNA knockout: sgHSF1, 10 nM	94	–	98.4
sgRNA knockout: sgHSF1, 100 nM	79.9	–	85.3
sgRNA knockout: sgHSF1, 1000 nM	96.4	–	73.8
sgRNA knockout: sgHSF1, 10000 nM	118	–	86.9
sgRNA knockout: sgHSF2, 10 nM	99.2	98.7	80.2
sgRNA knockout: sgHSF2, 100 nM	94.4	112	89.4
sgRNA knockout: sgHSF2, 1000 nM	91.5	122	78.2
sgRNA knockout: sgHSF2, 10000 nM	72.3	81.2	84.2
sgRNA knockout: sgKEAP1, 10 nM	108	–	109
sgRNA knockout: sgKEAP1, 100 nM	103	–	88.7
sgRNA knockout: sgKEAP1, 1000 nM	112	–	77
sgRNA knockout: sgKEAP1, 10000 nM	106	–	74.8
sgRNA knockout: sgNFE2L2, 10 nM	84.7	102	89.2
sgRNA knockout: sgNFE2L2, 100 nM	123.1	102	109
sgRNA knockout: sgNFE2L2, 1000 nM	98.3	117	94.9
sgRNA knockout: sgNFE2L2, 10000 nM	91	86	118
sgRNA knockout: sgSLC35F2, 10 nM	81.9	68.9	93.4
sgRNA knockout: sgSLC35F2, 100 nM	111	49.6	112
sgRNA knockout: sgSLC35F2, 1000 nM	108.2	86.2	83.5
sgRNA knockout: sgSLC35F2, 10000 nM	118	105	79.1
sgRNA knockout: sgXBP1, 10 nM	84.4	95.1	81
sgRNA knockout: sgXBP1, 100 nM	91.9	110.5	115
sgRNA knockout: sgXBP1, 1000 nM	96.69	118	74
sgRNA knockout: sgXBP1, 10000 nM	90.4	85.07	82.3

O=c1cc(-c2cccc3c2Sc2ccccc2S3)oc(N2CCOCC2)c1
relative cell number
Details	[1]	[2]	[3]
sgRNA knockout: sgATF3, 10 nM	130	90.6	106
sgRNA knockout: sgATF3, 100 nM	92.2	94.9	117
sgRNA knockout: sgATF3, 1000 nM	85.5	111	112
sgRNA knockout: sgATF3, 10000 nM	78.9	82.5	49.6
sgRNA knockout: sgATF4, 10 nM	92.6	82.2	95.9
sgRNA knockout: sgATF4, 100 nM	106	115	94.2
sgRNA knockout: sgATF4, 1000 nM	89.7	129	90.7
sgRNA knockout: sgATF4, 10000 nM	79	55.09	50
sgRNA knockout: sgATF6, 10 nM	93.4	125	81
sgRNA knockout: sgATF6, 100 nM	89.8	100	93.8
sgRNA knockout: sgATF6, 1000 nM	93	98	86.4
sgRNA knockout: sgATF6, 10000 nM	61.2	74	60.8
sgRNA knockout: sgATG7, 10 nM	110	76.3	90.8
sgRNA knockout: sgATG7, 100 nM	87.28	93.8	101
sgRNA knockout: sgATG7, 1000 nM	90.9	107	108
sgRNA knockout: sgATG7, 10000 nM	76.9	75.1	68.73
sgRNA knockout: sgERN1, 10 nM	114	71.7	119
sgRNA knockout: sgERN1, 100 nM	99.6	105	104
sgRNA knockout: sgERN1, 1000 nM	97	98.7	96.3
sgRNA knockout: sgERN1, 10000 nM	83.2	68.1	44.5
sgRNA knockout: sgHSF1, 10 nM	103	–	91.2
sgRNA knockout: sgHSF1, 100 nM	93.7	–	88.3
sgRNA knockout: sgHSF1, 1000 nM	89.465	–	99.1
sgRNA knockout: sgHSF1, 10000 nM	61.7	–	50.8
sgRNA knockout: sgHSF2, 10 nM	108	92.1	95.7
sgRNA knockout: sgHSF2, 100 nM	91.1	91.3	89.5
sgRNA knockout: sgHSF2, 1000 nM	99.7	98.1	93.1
sgRNA knockout: sgHSF2, 10000 nM	79.6	76.565	50.2
sgRNA knockout: sgKEAP1, 10 nM	99.6	–	109
sgRNA knockout: sgKEAP1, 100 nM	91.4	–	87.7
sgRNA knockout: sgKEAP1, 1000 nM	107	–	80.1
sgRNA knockout: sgKEAP1, 10000 nM	65.9	–	51.3
sgRNA knockout: sgNFE2L2, 10 nM	83.9	107	104
sgRNA knockout: sgNFE2L2, 100 nM	89.3	79.6	80.8
sgRNA knockout: sgNFE2L2, 1000 nM	99	94.34	90.23
sgRNA knockout: sgNFE2L2, 10000 nM	80	77.8	56.9
sgRNA knockout: sgSLC35F2, 10 nM	85.8	72.2	85.4
sgRNA knockout: sgSLC35F2, 100 nM	107	72.1	73.8
sgRNA knockout: sgSLC35F2, 1000 nM	73.6	102	98
sgRNA knockout: sgSLC35F2, 10000 nM	78.4	78.2	62.6
sgRNA knockout: sgXBP1, 10 nM	104	95.2	118
sgRNA knockout: sgXBP1, 100 nM	87.41	72.29	85.9
sgRNA knockout: sgXBP1, 1000 nM	100	106	79.3
sgRNA knockout: sgXBP1, 10000 nM	72.7	66.2	58.1
